Data published in patent publication US20140239906A1, “REDOX-ACTIVE LIGAND-BASED TRANSITION METAL COMPLEX FLOW BATTERIES” (Sandia Corporation, priority 2013, published 2014).

Test: Static cell (H-cell) galvanostatic charge-discharge cycling
Settings: 20 mM in acetonitrile, 0.1 M [TBA][PF6]

## CC[N+](CC)(CC)CC.CC[N+](CC)(CC)CC.N#CC([S-])=C([S-])C#N.N#CC([S-])=C([S-])C#N.N#CC([S-])=C([S-])C#N.[V+4] [1b]
From cycle 2 to cycle 16
  decrease of capacity during charge cycles: ~20%
initially
  electrochemical yield (faradaic efficiency) of charge cycles, initial: ~45%
Stabilizes by cycle 5
  coulombic efficiency: ~90%
